Reference: publication PMC9266917 (International Journal of Molecular Sciences, 2022)

Assay: general procedure: Fmoc solid-phase peptide synthesis; Rink Amide (0.38 mmol/g); HBTU/DIEA
Conditions: whole synthesis, 220 nm, scale of the general procedure 0.2 mmol

Substance: KLALKLALKALKAALKLA-NH2
- final HPLC purity: 100%
